“And” between values parts separate entries of the source, which are not always exact repeats. Identical values can stand only once. The list shows a part of the results. Repeats in this data set agree poorly, so a single value says little.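 U2OS cells carrying ACE2 were mixed with U2OS cells carrying full-length spike, and fusion was scored by imaging as the share of nuclei showing both cell types' fluorescent markers. A compound counts as an inhibitory hit when it is non-toxic and its fusion z-score falls below -3, meaning more than three standard deviations below the plate's DMSO wells.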

The experiment has as its system U2OS ACE2 x SARS-CoV-2 spike co-culture. Kind of experiment: cell-cell fusion (fraction fused) z-score vs plate DMSO control; higher = more fusion. As to conditions: 30 µM; 5 h; toxicity class: non-toxic, passed QC.
With `CC1(C)C(=O)C=C[C@@]2(C)C1C=C[C@]1(C)C2CC[C@@]2(C)[C@H](c3ccoc3)OC(=O)[C@H]3O[C@]321` (some centres undefined), the “cell-cell fusion (z-score)” value is inactive: 2.44.
Consider `CC1=C(C(=O)O)N2C(=O)[C@@H](NC(=O)[C@H](N)c3ccccc3)[C@H]2SC1` [Cephalexin], for which the “cell-cell fusion (z-score)” value is inactive: -1.93.
Next, `CCn1cc(C(=O)O)c(=O)c2cnc(N3CCCC3)nc21.NCCO`: inactive: 0.665.
For `NCCO.NCCO.O[AsH]O[AsH]O` (centres undefined) the value was inactive: 1.8.
In the case of `CC(CN(C)C)CN1c2ccccc2Sc2ccccc21.CC(CN(C)C)CN1c2ccccc2Sc2ccccc21.O=C(O)[C@H](O)[C@@H](O)C(=O)O` (centres undefined) [Trimeprazine tartrate], the “cell-cell fusion (z-score)” value is inactive: -0.0467.
Next, `CC(C)[N+](C)(CCOC(=O)C1c2ccccc2Oc2ccccc21)C(C)C.[Br-]`: inactive: 0.606; `CCCCCCCCCC[Si](C)(C)CCC(=O)NC(Cc1ccc(C)cc1)c1ccccc1` (centres undefined) [Sandoz 58-035]: inactive: 3.45; `CC(=O)N[C@@H](CCC(=O)O)C(=O)O`: inactive: 3.55.
`Nc1nnc(-c2cccc(Cl)c2Cl)c(N)n1` [Lamotrigine]: the “cell-cell fusion (z-score)” value was inactive: 2.94.
Turning to `O=C1NC(=O)/C(=C\c2cccc(C(F)(F)F)c2)S1`, the “cell-cell fusion (z-score)” value is inactive: 0.754 and inactive: -0.678.
For `CCCCCCOc1ccccc1C(N)=O` the value was inactive: 1.7.
For `Nc1ncnc2c1ncn2[C@@H]1O[C@H](CO)[C@@H](O)[C@H]1O` [Adenosine], the “cell-cell fusion (z-score)” value was inactive: 1.81.
For `N#Cc1ccc(C(c2ccc(C#N)cc2)n2cncn2)cc1` [Letrozole] the value was inactive: 3.97; for `CC(=O)CC(c1ccccc1)c1c(O)c2ccccc2oc1=O` (centres undefined), inactive: 2.29.
For `Cc1c(N)c(=O)n(-c2ccccc2)n1C` the value was inactive: 1.61; for `N#Cc1ccc2[nH]cc(CCCCN3CCN(c4ccc5oc(C(N)=O)cc5c4)CC3)c2c1` [Vilazodone], inactive: -0.496; for `COc1ccc(-c2oc3c(CC=C(C)C)c(O[C@@H]4O[C@H](CO)[C@@H](O)[C@H](O)[C@H]4O)cc(O)c3c(=O)c2O[C@@H]2O[C@@H](C)[C@H](O)[C@@H](O)[C@H]2O)cc1`, inactive: 2.3.
For `CC1(C)O[C@@H]2CC3C4C[C@H](F)C5=CC(=O)CC[C@]5(C)C4[C@@H](O)C[C@]3(C)[C@]2(C(=O)CO)O1` (some centres undefined) the value was inactive: 3.08; for `CC(=O)O.N=C(N)N/N=C\c1c(Cl)cccc1Cl`, inactive: -0.188; for `CNCCCC12CCC(c3ccccc31)c1ccccc12.Cl` [Maprotiline hydrochloride], inactive: -1.84.
As to `C=CCN1CCC23c4c5ccc(O)c4O[C@H]2C(=O)CC[C@@]3(O)C1C5.Cl` (some centres undefined) [Naloxone hydrochloride], the “cell-cell fusion (z-score)” value is inactive: 2.52.
Next, `CCCNS(=O)(=O)Nc1ncnc(OCCOc2ncc(Br)cn2)c1-c1ccc(Br)cc1` [Macitentan]: inactive: 0.312; `CC(C)(C)NCC(O)COc1nsnc1N1CCOCC1.O=C(O)/C=C\C(=O)O` (stereo not drawn) [S(-)-Timolol maleate]: inactive: 1.38.
For `C[C@@H]1CCN(C(=O)C(CCCN=C(N)N)NS(=O)(=O)c2cccc3c2NC[C@H](C)C3)C(C(=O)O)C1.O` (some centres undefined) [Argatroban monohydrate] the value was inactive: 1.65.
Next, `C=C(C)c1cc2cc(C(C)=O)c(O)cc2o1`: inactive: 1.81.
For `Cc1ccc(S(=O)(=O)N[C@@H](Cc2ccccc2)C(=O)CCl)cc1` [N-p-Tosyl-L-phenylalanine chloromethyl ketone], the “cell-cell fusion (z-score)” value is inactive: 1.32.
As to `O=C(O)c1nn(Cc2ccc(Cl)cc2Cl)c2ccccc12` [Lonidamine], the “cell-cell fusion (z-score)” value was inactive: 0.986.
Next, `CCCN1CCCC[C@H]1C(=O)Nc1c(C)cccc1C` [Ropivacaine]: inactive: 0.417; `O=C1O[C@H](CO)[C@@H](O)[C@H](O)[C@H]1O` [Delta-Gluconolactone]: inactive: 2.44; `CC[N+](C)(C)c1cccc(O)c1.[Cl-]`: inactive: 1.82.
`CC[N+](C)(C)c1cccc(O)c1.[Cl-]` [Edrophonium chloride]: the “cell-cell fusion (z-score)” value was inactive: 3.89.
Next, `O=c1cc(N2CCOCC2)oc2c(-c3cccc4c3sc3ccccc34)cccc12`: inactive: 0.84 and inactive: 1.91.
Next, `C#C[C@]1(O)CC[C@H]2[C@@H]3CCc4cc(O)ccc4[C@H]3CC[C@@]21C` [Ethynyl estradiol]: inactive: 2.4; `CC(=O)OC1CCC2(C)C3CC(=O)C4(C)C(CC5OC6(CCC(C)CO6)[C@@H](C)C54)C3CC[C@H]2C1` (some centres undefined): inactive: 2.07; `CC(C)(C)OC(=O)NC1[C@H]2CNC[C@@H]12` (some centres undefined): inactive: 2.47.
Next, `Cc1cccc(/C=C/c2ccccc2)n1`: inactive: 2.75.
For the molecule `C#C[C@]1(O)CCC2C3CCc4cc(O)ccc4C3CC[C@@]21C` (some centres undefined), the “cell-cell fusion (z-score)” value was active: -3.18.
Next, `CN1CCC2(CCN3CCc4c(oc5ccccc45)C3C2)N(C)C1=O.Cl` (centres undefined): inactive: 2.15.
Turning to `C[C@H]1OC(O[C@H]2[C@@H](O)CC(O[C@H]3[C@@H](O)C[C@H](O[C@H]4CC[C@]5(C)C6CC[C@]7(C)[C@@H](C8=CC(=O)OC8)[C@@H](O)C[C@]7(O)[C@@H]6CC[C@@H]5C4)O[C@@H]3C)O[C@@H]2C)C[C@H](O)C1O` (some centres undefined), the “cell-cell fusion (z-score)” value was inactive: 1.96.
For `NCCCNCCCCNCCCN` the value was inactive: 2.53; for `N[C@H](C(=O)O)c1cc(O)cc(O)c1` [(S)-3,5-Dihydroxyphenylglycine], inactive: 2.39.
Next, `CCN(CC)CCNC(=O)c1cc(Cl)c(N)cc1OC` [5-Chloro-2-methoxyprocainamide]: inactive: 3.48; `CCOc1ccc2ccccc2c1C(=O)N[C@@H]1C(=O)N2[C@@H]1SC(C)(C)[C@@H]2C(=O)[O-].O.[Na+]` [nafcillin sodium]: inactive: 1.93.
For the molecule `CC(C)(CO)C(O)C(=O)NCCCO` (centres undefined) [Panthenol], the “cell-cell fusion (z-score)” value is inactive: 1.48.
For `CC(C)(CO)C(O)C(=O)NCCCO` (centres undefined) the value was inactive: 1.91; for `Cn1cnc2c1c(=O)[nH]c(=O)n2C` [Theobromine], inactive: 2.34; for `CCc1cncnc1N1CCN(Cc2nc3cc(C(F)(F)F)ccc3[nH]2)CC1`, inactive: -0.5.
For `CCCSc1nc(N[C@@H]2C[C@H]2c2ccc(F)c(F)c2)c2nnn([C@@H]3C[C@H](OCCO)[C@@H](O)[C@H]3O)c2n1` [Ticagrelor] the value was active: -16; for `COc1cc(OC)c2c(=O)cc(-c3ccccc3)oc2c1`, inactive: 1.63.
Next, `O=C(O)[C@H](O)[C@@H](O)C(=O)O.c1cnc2cc3c(cc2n1)C1CNCC3C1` [Varenicline tartrate]: inactive: 2.21; `O=C(O)/C=C/C(=O)O.O=C(O)/C=C/C(=O)O.O=C(O)/C=C/C(=O)O.O=C1CCCN1CC#CCN1CCCC1.O=C1CCCN1CC#CCN1CCCC1` [Oxotremorine sesquifumarate salt]: inactive: 1.99.
Consider `COc1cc2c(c(OC)c1OC)-c1ccc(OC)c(=O)cc1[C@@H](NC(C)=O)CC2`, for which the “cell-cell fusion (z-score)” value was inactive: -2.82.
For `CNC(=NC#N)NCCSCc1nc[nH]c1C` [Cimetidine] the value was inactive: 2.65; for `CC(C)C[C@H]1C(=O)N2CCC[C@H]2[C@]2(O)O[C@](NC(=O)[C@@H]3C=C4c5cccc6[nH]c(Br)c(c56)C[C@H]4N(C)C3)(C(C)C)C(=O)N12.CS(=O)(=O)O` [(+)-Bromocriptine methanesulfonate], inactive: 3.01.
Next, `CC(C)c1c(C(=O)Nc2ccccc2)c(-c2ccccc2)c(-c2ccc(F)cc2)n1CC[C@@H](O)C[C@@H](O)CC(=O)[O-].CC(C)c1c(C(=O)Nc2ccccc2)c(-c2ccccc2)c(-c2ccc(F)cc2)n1CC[C@@H](O)C[C@@H](O)CC(=O)[O-].O.O.O.[Ca+2]` [Atorvastatin calcium salt trihydrate.]: inactive: 1.29; `CC(C(=O)O)c1cccc(C(=O)c2ccccc2)c1` (centres undefined): inactive: 2.17; `C#C[C@]1(O)CCC2C3CCC4=Cc5oncc5C[C@]4(C)C3CC[C@@]21C` (some centres undefined): inactive: 0.527.
As for `COc1ccc(OC)c(C(O)CNC(=O)CN)c1.Cl` (centres undefined), the “cell-cell fusion (z-score)” value was inactive: 2.68.
For `Cl.O=C(N[C@H]1CN2CCC1CC2)c1ccc(Cl)cc1` the value was inactive: 2.3.
Next, `CNC[C@H](O)[C@@H](O)[C@H](O)[C@H](O)CO.Cc1c(Nc2ncccc2C(=O)O)cccc1C(F)(F)F`: inactive: 1.52; `O=C1NS(=O)(=O)c2ccccc21`: inactive: 3.98; `CC(C)N(CCCCOCC(=O)NS(C)(=O)=O)c1cnc(-c2ccccc2)c(-c2ccccc2)n1` [Selexipag]: inactive: 0.642.
Turning to `C[N+]1(C)[C@@H]2C[C@@H](OC(=O)[C@H](CO)c3ccccc3)C[C@H]1[C@@H]1O[C@@H]12.[Br-]` [Methscopolamine], the “cell-cell fusion (z-score)” value was inactive: 2.26.
Next, `CCOC(=O)C(C)(C)Oc1ccc(Cl)cc1`: inactive: 2.64; `CCOC(=O)C(C)(C)Oc1ccc(Cl)cc1` [Clofibrate]: inactive: 0.213; `CN(C)CCCOc1nn(Cc2ccccc2)c2ccccc12.Cl`: inactive: 2.52.
For the molecule `Cn1c(=O)c2[nH]cnc2n(C)c1=O`, the “cell-cell fusion (z-score)” value is inactive: 2.01.
For the molecule `C[C@@H]1CC2C3C[C@H](F)C4=CC(=O)C=C[C@]4(C)[C@@]3(F)[C@@H](O)C[C@]2(C)[C@@]1(O)C(=O)CO` (some centres undefined), the “cell-cell fusion (z-score)” value was inactive: 1.25.
`O=S(=O)([O-])c1cc(I)c(O)c2ncccc12.[Na+]`: the “cell-cell fusion (z-score)” value is inactive: 0.679.

(Values after the supplement of paper PMC8104966.)
